# Experimental data published in publication PMC8144621, “A two-hybrid system reveals previously uncharacterized protein–protein interactions within the Helicobacter pylori NIF iron–sulfur maturation system” (Scientific Reports, 2021).
# Results are given in words; binding and its absence hold for the method and conditions named. Binding can be weak; no strength is given. Sequences can lack the tags named with a protein.
# Experiments:
# [1] = molecular target: T1, ApbC (HP0207), BACTH fusion (Helicobacter pylori strain 26695) (UniProt O24999); experiment: two-hybrid; BACTH (bacterial adenylate cyclase two-hybrid) in E. coli BTH101 (cya); T25 fusion (pKT25 or pKNT25) with T18 fusion (pUT18C); screening on MacConkey-maltose (MC-Mal) plates with 0.5 mM IPTG, 0.1 mM FeCl3, 0.5 mM L-cysteine; 30 °C, 36-48 h, aerobic; positive clones turn red
# T1 sequence: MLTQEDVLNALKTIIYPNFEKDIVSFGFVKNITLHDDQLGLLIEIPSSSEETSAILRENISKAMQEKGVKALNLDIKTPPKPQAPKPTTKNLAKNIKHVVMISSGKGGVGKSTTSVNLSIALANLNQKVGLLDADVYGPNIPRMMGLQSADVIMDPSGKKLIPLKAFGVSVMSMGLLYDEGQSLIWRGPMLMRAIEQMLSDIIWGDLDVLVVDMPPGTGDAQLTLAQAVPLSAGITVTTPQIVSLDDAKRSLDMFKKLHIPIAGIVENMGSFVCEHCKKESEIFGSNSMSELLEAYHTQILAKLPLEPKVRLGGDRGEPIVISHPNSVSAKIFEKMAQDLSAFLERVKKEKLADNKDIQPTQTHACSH
# [2] = molecular target: T1, ApbC (HP0207), BACTH fusion (Helicobacter pylori strain 26695); experiment: two-hybrid; BACTH in E. coli BTH101 (cya); T25 fusion (pKT25 or pKNT25) with T18 fusion (pUT18C); screening on LB-X-Gal plates with 0.5 mM IPTG, 0.1 mM FeCl3, 0.5 mM L-cysteine; 30 °C, 36-48 h, aerobic; positive clones turn blue
# [3] = molecular target: T2, FdxA (HP0277), BACTH fusion (Helicobacter pylori strain 26695) (UniProt O25054); experiment: two-hybrid; BACTH (bacterial adenylate cyclase two-hybrid) in E. coli BTH101 (cya); T25 fusion (pKT25 or pKNT25) with T18 fusion (pUT18C); screening on MacConkey-maltose (MC-Mal) plates with 0.5 mM IPTG, 0.1 mM FeCl3, 0.5 mM L-cysteine; 30 °C, 36-48 h, aerobic; positive clones turn red
# T2 sequence: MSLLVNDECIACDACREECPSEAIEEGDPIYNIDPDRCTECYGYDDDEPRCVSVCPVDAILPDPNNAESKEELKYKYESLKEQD
binding [1],binding [2],binding [3],Substance
binds,binds,,"Nqo3 (HP1266), T18 fusion (from UniProt O25856)"
,,binds,"[2Fe–2S] Ubiquinol cytochrome c oxidoreductase Rieske (HP1540), T18 fusion (from UniProt O26065)"
binds,binds,,"hydrogenase subunit HynA (HP0631), T18 fusion (from UniProt O25348)"
binds,binds,,"pyruvate-ferredoxin oxidoreductase subunit (HP1109), T18 fusion (from UniProt O25737)"
